Results taken from US10849956B2, “Glycopeptide compositions” (priority 2014, dated 2020).
Values after ≈ are worked out from the molar mass of the structure shown.

Key:
[1] = test system: Enterococcus faecalis ATCC 29212; assay: Antibacterial susceptibility testing, broth dilution method (CLSI); type: cell-based; conditions: ATCC29212, read-out: Enterococcus faecalis MIC (μg/mL)
Protocol: (§1) Testing was performed using broth dilution method according to Clinical and Laboratory Standards Institute (CLSI) guidelines M100-S23/S24; M07-A9, the disclosure of which is herein incorporated by reference.
(§2) The antibiotic activity of eight aqueous pharmaceutical compositions was determined and compared to the activity of the injectable reference finished product, Vancocin, manufactured by Flynn Pharma Ltd. Antibiotic activity was determined against quality control strains: Staphylococcus aureus ATCC 29213, Enterococcus faecalis ATCC 29212 and Streptococcus pnemoniae ATCC 49619.

[2] = test system: Staphylococcus aureus ATCC 29213; assay: as above; type: cell-based; conditions: ATCC29213, read-out: Staphylococcus aureus MIC (μg/mL)
Protocol: as §1, §2

`CN[C@H](CC(C)C)C(=O)N[C@H]1C(=O)N[C@@H](CC(N)=O)C(=O)N[C@H]2C(=O)N[C@H]3C(=O)N[C@H](C(=O)N[C@H](C(=O)O)c4cc(O)cc(O)c4-c4cc3ccc4O)[C@H](O)c3ccc(c(Cl)c3)Oc3cc2cc(c3O[C@@H]2O[C@H](CO)[C@@H](O)[C@H](O)[C@H]2O[C@H]2C[C@](C)(N)[C@H](O)[C@H](C)O2)Oc2ccc(cc2Cl)[C@H]1O` [Vancomycin USP standard, Vancomycin] showed an MIC [1] of 2 µg/mL (≈ 1.38 µM) and an MIC [2] of 1 µg/mL (≈ 0.69 µM).
